The text below walks through data of article PMC11861601.

Protein sequences, listed by entry. Tags and fused reporters are not part of them. Lines headed by an entry give the natural chain unless they say otherwise; changes in a name come on top. Residues count along the entry.
UniProt P01106, residues 16-454: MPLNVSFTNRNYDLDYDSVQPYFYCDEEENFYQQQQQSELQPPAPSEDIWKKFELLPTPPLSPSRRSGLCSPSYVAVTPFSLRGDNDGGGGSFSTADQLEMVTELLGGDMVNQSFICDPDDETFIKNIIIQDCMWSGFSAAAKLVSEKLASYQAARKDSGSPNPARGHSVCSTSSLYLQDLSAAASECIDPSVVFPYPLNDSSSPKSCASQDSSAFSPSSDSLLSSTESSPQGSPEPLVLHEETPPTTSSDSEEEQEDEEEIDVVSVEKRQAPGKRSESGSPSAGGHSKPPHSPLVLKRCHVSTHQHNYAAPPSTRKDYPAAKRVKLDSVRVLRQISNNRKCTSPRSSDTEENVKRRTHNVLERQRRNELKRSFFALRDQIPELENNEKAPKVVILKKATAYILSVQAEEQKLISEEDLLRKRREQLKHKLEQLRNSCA
UniProt P61244: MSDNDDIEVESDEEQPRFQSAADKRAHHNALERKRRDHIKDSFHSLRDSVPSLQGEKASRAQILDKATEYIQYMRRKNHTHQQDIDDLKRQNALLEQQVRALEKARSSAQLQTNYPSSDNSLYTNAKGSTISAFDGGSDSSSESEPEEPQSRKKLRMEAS
UniProt P0A9M0: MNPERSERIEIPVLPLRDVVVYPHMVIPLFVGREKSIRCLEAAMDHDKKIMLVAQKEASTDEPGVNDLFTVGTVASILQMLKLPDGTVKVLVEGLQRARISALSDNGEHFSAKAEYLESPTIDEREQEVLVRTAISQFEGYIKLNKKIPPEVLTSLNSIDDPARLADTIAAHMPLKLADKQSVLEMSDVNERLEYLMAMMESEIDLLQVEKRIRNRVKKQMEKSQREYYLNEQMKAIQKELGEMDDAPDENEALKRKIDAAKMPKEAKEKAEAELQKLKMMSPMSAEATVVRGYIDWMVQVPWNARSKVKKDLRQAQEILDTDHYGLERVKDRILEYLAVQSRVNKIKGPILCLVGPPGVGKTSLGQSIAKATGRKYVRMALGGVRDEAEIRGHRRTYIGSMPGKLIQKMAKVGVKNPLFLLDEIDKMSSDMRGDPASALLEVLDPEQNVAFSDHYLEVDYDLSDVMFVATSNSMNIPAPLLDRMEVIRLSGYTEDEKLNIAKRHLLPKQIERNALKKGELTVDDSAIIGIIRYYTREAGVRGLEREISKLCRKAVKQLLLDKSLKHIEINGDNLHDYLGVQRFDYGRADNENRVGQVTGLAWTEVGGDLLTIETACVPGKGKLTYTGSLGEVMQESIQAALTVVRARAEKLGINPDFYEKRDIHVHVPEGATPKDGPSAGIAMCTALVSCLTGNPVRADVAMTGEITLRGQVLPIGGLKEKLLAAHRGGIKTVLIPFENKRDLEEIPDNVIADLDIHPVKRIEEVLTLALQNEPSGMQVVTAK

Experiment [1] addresses His-tagged full-length c-MYC (human) (UniProt P01106). Kind of experiment: SPR; Biacore X100; His-tagged ligand (~0.2 µM) captured on Ni-charged Sensor Chip NTA; Lon protein or domain injected at five dilutions; 25 °C, 30 µL/min; running buffer as printed 0.1 M HEPES, 1.5 M NaCl, 0.03 M EDTA, 0.5% v/v Surfactant P20; reference cell without nickel; 1:1 Langmuir fit; both purified. On the technique in general: Surface plasmon resonance follows binding to a sensor surface in real time, without labels.

For experiment [2], the target named is His-tagged MAX (human) (UniProt P61244). In words: far-Western, overlay or dot blot; dot blots named only in the discussion; format not told; both purified.
Experiment [3] has the same target. In words: SPR; Biacore X100; His-tagged ligand (~0.2 µM) captured on Ni-charged Sensor Chip NTA; Lon protein or domain injected at five dilutions; 25 °C, 30 µL/min; running buffer as printed 0.1 M HEPES, 1.5 M NaCl, 0.03 M EDTA, 0.5% v/v Surfactant P20; reference cell without nickel; 1:1 Langmuir fit; both purified.

Results are given in words; binding and its absence hold for the method and conditions named. Some results given as binding are weak or reduced against the parent protein; the word gives no strength.

Consider “Lon AAA+ domain peptide (aa 241-584) (from UniProt P0A9M0 241-584) (domain or fragment)”, for which, in experiment [1], the binding entry was “binds”.

Take “Lon N-terminal domain peptide (aa 1-245) (from UniProt P0A9M0 1-245) (domain or fragment)”: the binding entry in experiment [2] was “binds”.

Regarding “Lon peptidase domain peptide (aa 581-778) (from UniProt P0A9M0 581-778) (domain or fragment)”, the binding entry in experiment [1] is listed as “binds”.

In the case of “recombinant Escherichia coli Lon protease (aa 1-778) (from UniProt P0A9M0 1-778) (enzyme)”, the binding entry in experiment [3] and in experiment [1] was “binds” each time.
